Test results taken from article doi:10.1101/779520.
These are yes or no findings as the source states them, for the method shown. In cells and extracts the contact can be indirect. Sequences can lack the tags named with a protein.

Target: T1, HEK293T-expressed HA peptide (mCherry-P2A-HA)
T1 sequence (peptide): YPYDVPDYA
Assay: pull-down

protein kinase C α (from UniProt P20444 1-672) (enzyme)
binding: no binding
